From PubChem BioAssay AID504834 (National Center for Advancing Translational Sciences (NCATS), 2011)
Several values for one entry are separate records, joined by “and”; a condition that tells them apart may be missing. Equal values may be shown once. Hit rate of the full screen: of about 320,000 compounds, about 22,000 (6.9%) were called active. The inconclusive results got no clear call from the source; some entries with a clear call stand among them for comparison. The call rests on the fitted dose curve; in most records, active means well fitted inhibition curve with a large enough effect; inconclusive means small, poorly fitted or top-dose-only effect, or another doubt; inactive means no such curve, though single readings can be large or run the other way. Potencies beside an inconclusive call are fits to weak or partial responses and may not hold up.

assay: Primary qHTS for delayed death inhibitors of the malarial parasite plastid, 96 hour incubation; conditions: P. falciparum luciferase reporter growth; series mostly up to 28.7 µM
Outline: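 Readout is luminescence from an integrated firefly luciferase in P. falciparum. Red cells, 2% hematocrit and 0.05% parasitemia final, were cultured with compound through two parasite generations (96 hours) at 37 C, 5% CO2.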
Potency means the concentration at half of the fitted maximal effect.

Row | SMILES | Potency
1 | O=C(CNC(=O)c1ccccc1Br)N/N=C/c1cccs1 | inactive
2 | Cc1ccc(NC(=O)C2CCCN2C(=O)OCc2ccccc2)cc1C (stereo not given) | inconclusive: 18.5 µM [inhibitor, single point]
3 | C=CCN1C(=O)CN=C1Nc1cc(C)ccc1C | inactive
4 | CN(C)Cc1c(O)ccc2occ(C(O)c3ccccc3)c12 (stereo not given) | inconclusive: 13.1 µM [inhibitor, partial curve, poor fit]
5 | CCc1noc(C)c1C(=O)Nc1ccc(C#N)cc1 | inactive
6 | Cc1ncc(C[n+]2csc(C)c2C)c(N)n1 | inactive
7 | CC1(C)CC(=O)C(C=NCCCn2ccnc2)=C(O)C1 | inactive
8 | Cc1ccc(NC(=O)CC2OC(=O)c3ccccc32)cc1S(=O)(=O)N1CCOCC1 (stereo not given) | inconclusive: 18.5 µM [inhibitor, single point]
9 | CC(C)c1ccc(-c2csc3ncnc(N4CCN(C)CC4)c23)cc1 | inconclusive: 4.15 µM [inhibitor, partial curve]
10 | COc1cccc(C(=O)COC(=O)C(C)N2C(=O)C3C4C=CC(C4)C3C2=O)c1 (stereo not given) | inconclusive: 11.7 µM [inhibitor, single point]
11 | Cc1cccc2c1cnn2C(=O)CCC(=O)N1CC(C)CC(C)C1 (stereo not given) | inconclusive: 1.85 µM [inhibitor, single point]
12 | O=C(N/N=C/C=C/c1ccccc1)c1cccnc1 | inactive
13 | COc1cccc(/C=N/NC(=O)C(=O)N/N=C/c2cccc(OC)c2O)c1O | inactive
14 | Cc1cc(-c2ccn[nH]2)c(C)s1 | inconclusive: 18.5 µM [inhibitor, single point]
15 | CCCNC(=O)/C=C/c1ccc(S(=O)(=O)Nc2ccccc2OC)cc1 | active: 9.28 µM
16 | Cc1ccc2nc(CCc3nc4ccc(C)cc4[nH]3)[nH]c2c1 | inactive
17 | Oc1c(I)cc(Cl)c2cccnc12 | inconclusive: 19 µM [inhibitor, single point] and inconclusive: 14.7 µM [inhibitor, single point]
18 | CCOc1ccc(NC(=O)CN(C)C(=O)C2CC(=O)N(c3ccc4c(c3)OCCO4)C2)cc1OCC (stereo not given) | inconclusive: 10.4 µM [inhibitor, partial curve, poor fit]
19 | O=C(c1ccc(-c2ccccc2)c(F)c1)C1CCCN(CCCn2cccn2)C1 (stereo not given) | inconclusive: 18.5 µM [inhibitor, single point]
20 | Cc1c2n(c3ccccc13)CCN(C)C2 | inactive
21 | CS(=O)(=O)Nc1cccc(C(=O)CC2(O)C(=O)Nc3ccccc32)c1 (stereo not given) | inactive
22 | O=C(CNC(=S)N(CCCN1CCOCC1)Cc1cccs1)NC1CCCCCCC1 | inconclusive: 14.7 µM [inhibitor, single point]
23 | COc1ccc(-c2csc(N3C(=O)CNC3=S)n2)cc1 | inconclusive: 18.5 µM [inhibitor, single point]
24 | CC(=O)NC12CC3CC(C1)CC(C(=O)N(C)Cc1cccc(Cl)c1Cl)(C3)C2 | inconclusive: 14.7 µM [inhibitor, partial curve, poor fit]
25 | Nc1cc(N)nc(SCc2cccnc2)n1 | inconclusive: 18.5 µM [inhibitor, partial curve, poor fit]

Quoted from the listing:
Entry of O=C(N/N=C/C=C/c1ccccc1)c1cccnc1 under Potency: inactive
Entry of CC(=O)NC12CC3CC(C1)CC(C(=O)N(C)Cc1cccc(Cl)c1Cl)(C3)C2 under Potency: inconclusive: 14.7 µM [inhibitor, partial curve, poor fit]
Entry of COc1cccc(C(=O)COC(=O)C(C)N2C(=O)C3C4C=CC(C4)C3C2=O)c1 (stereo not given) under Potency: inconclusive: 11.7 µM [inhibitor, single point]
Entry of O=C(CNC(=S)N(CCCN1CCOCC1)Cc1cccs1)NC1CCCCCCC1 under Potency: inconclusive: 14.7 µM [inhibitor, single point]

Remaining list, next part

Row | SMILES | Potency
26 | CCCn1c(O)c(N=NC(=O)c2ccco2)c2ccccc21 | inconclusive: 18.5 µM [inhibitor, single point]
27 | Cc1cc(NC(=O)C(C)SCC(=O)N(Cc2ccccc2)c2ccccc2)no1 (stereo not given) | inactive
28 | O=C(Nc1nc(-c2ccccc2)c(-c2ccccc2)o1)c1ccc(F)cc1 | active: 9.28 µM
29 | CC(=O)CCc1c(C)nc2ccc(C)cc2c1Cl | inconclusive: 16.5 µM [inhibitor, single point]
30 | Cc1csc(NC(=O)CSc2nsc(SCC(=O)Nc3nc(C)cs3)c2C#N)n1 | inactive
31 | CC(=O)c1cccc(NC(=O)C2C3C=CC(C4CC34)C2C(=O)O)c1 (stereo not given) | inactive
32 | COc1ccc(C=O)c2[nH]c3c(Cl)ncnc3c12 | inconclusive: 9.28 µM [inhibitor, partial curve, poor fit]
33 | Cc1cccc(NC(=O)CCC(=O)N/N=C/c2ccc(O)cc2O)c1 | inconclusive: 5.22 µM [inhibitor, partial curve]
34 | CC(=O)Oc1ccc2nc(CN3C(=O)c4ccc([N+](=O)[O-])cc4C3=O)oc(=O)c2c1 | inconclusive: 2.62 µM [inhibitor, full curve, poor fit]
35 | CC(C)(C)c1ccc(C(=O)c2c[nH]c(C(=O)NCCCn3ccnc3)c2)cc1 | active: 7.38 µM
36 | CCOC(=O)CN1CC23C=CC(O2)C(C(=O)O)C3C1=O (stereo not given) | inconclusive: 10.4 µM [inhibitor, partial curve]
37 | COc1c(C)cc(S(=O)(=O)NCc2ccco2)c(C)c1C | inconclusive: 10.4 µM [inhibitor, single point]
38 | O=C(CCC(=O)N/N=C/c1ccccc1O)NCc1ccccc1 | inactive
39 | CCCC(=O)c1c[nH]c(C(=O)NCCc2ccccn2)c1 | inactive
40 | O=C(O)c1ccc2c(c1)SC1=NS(=O)(=O)CCN12 | inactive
41 | COc1ccc(/C=C2\CCc3ccccc3C2=O)cc1Cn1cccn1 | inactive
42 | O=C(NCc1ccco1)C1CCCN(S(=O)(=O)c2ccc(Cl)cc2)C1 (stereo not given) | inactive
43 | CCN(CC)S(=O)(=O)c1ccc(N2CCCC2)c(NC(=O)CC(C)(C)C)c1 | inconclusive: 8.28 µM [inhibitor, partial curve, poor fit]
44 | COC(=O)c1cc(S(=O)(=O)N2CCN(Cc3ccccc3)CC2)cn1C | inactive
45 | CC(Oc1ccccc1)C(=O)Nc1nnc(S(=O)(=O)Nc2ccccc2)s1 (stereo not given) | inactive
46 | CCCCn1c(SCc2ccc(Cl)cc2)nc2c1c(=O)[nH]c(=O)n2C | inactive
47 | CCc1ccc(S(=O)(=O)Nc2ccc(Cl)cn2)cc1 | inconclusive: 18.5 µM [inhibitor, single point]
48 | CCOC(=O)c1ccccc1NC(=O)CN(c1ccccc1OCC)S(C)(=O)=O | inactive
49 | CCN(C(=O)COC(=O)c1cc(S(=O)(=O)N(C)C)ccc1Cl)C1CCS(=O)(=O)C1 (stereo not given) | inactive
50 | CC1CCCCN1CCCNc1ccc(C(CC(N)=O)NC(=O)Cc2ccc(Cl)cc2)cc1[N+](=O)[O-] (stereo not given) | inactive

Row | SMILES | Potency
51 | Cc1cc(=O)[nH]c2c(C)cc(S(=O)(=O)Nc3ccc(O)cc3)cc12 | inconclusive: 18.5 µM [inhibitor, single point]
52 | CN(Cc1ccccc1)c1nc(N)c([N+](=O)[O-])c(Nc2cccc(F)c2)n1 | inconclusive: 18.5 µM [inhibitor, single point]
53 | O=C(COC(=O)COc1ccccc1)NCc1ccco1 | inactive
54 | COc1cccc(CNC(=O)C2CCN(S(=O)(=O)c3ccc4c(c3)NC(=O)C(C)S4)CC2)c1 (stereo not given) | inconclusive: 10.4 µM [inhibitor, single point]
55 | COC(=O)c1cc(OC)c(OC)cc1NC(=O)CN1C(=O)c2ccccc2C1=O | inactive
56 | COc1ccc(CCNC(=O)C(=O)NCC2OCCN2S(=O)(=O)c2ccc(Br)cc2)cc1OC (stereo not given) | inconclusive: 14.7 µM [inhibitor, single point]
57 | Clc1ccc(-c2nc3ncccn3c2Cl)cc1 | inactive
58 | CCCC(=Nc1ccccc1)C1=C(O)C(C(=O)OC)C(C)(C)CC1=O (stereo not given) | inactive
59 | CC(Sc1nc2ccccc2c(=O)n1CC1CCCO1)C(=O)N(C)Cc1ccccc1 (stereo not given) | active: 10.4 µM
60 | Cc1cc(=O)[nH]c(SCCCOc2ccc3c(c2)CCC3)n1 | inconclusive: 13.1 µM [inhibitor, single point]
61 | O=C(COC(=O)c1ccccc1-c1ccccc1[N+](=O)[O-])c1ccccc1 | inconclusive: 18.5 µM [inhibitor, single point]
62 | COc1nc(N(C)C)nc(N(C#N)CCOC(C)=O)n1 | inactive
63 | Cc1ccc(NC(=O)N2CCCN(Cc3ccc(F)cc3)C2)cc1C | inconclusive: 0.165 µM [inhibitor, full curve, poor fit]
64 | COc1ccccc1NC(=O)c1ccccc1-c1ccccc1C(=O)O | inactive
65 | CCOC(=O)N1CCC(NC(=O)C2CCCN(Cc3nc(-c4cccc(Cl)c4)oc3C)C2)CC1 (stereo not given) | inconclusive: 5.86 µM [inhibitor, partial curve, poor fit]
66 | C/C(=N\N1CCCCCC1)c1c(O)n(-c2ccccc2C)c(=O)[nH]c1=O | inconclusive: 4.65 µM [inhibitor, partial curve, poor fit]
67 | Cc1nc(NC(=O)CN(C)S(=O)(=O)c2ccc(Cl)cc2)sc1C | inconclusive: 5.86 µM [inhibitor, partial curve, poor fit]
68 | Cc1ccc(N2CC(NC(=O)C(=O)c3c(C)[nH]c4ccccc34)CC2=O)cc1C (stereo not given) | inconclusive: 11.7 µM [inhibitor, single point]
69 | Cc1ccc(-n2c(O)c(/C=N/c3ncn[nH]3)c3ccccc3c2=O)cc1 | inconclusive: 20.8 µM [inhibitor, single point]
70 | COc1cccc(-c2nc(NCc3ccco3)c3ccccc3n2)c1O | inconclusive: 18.5 µM [inhibitor, single point]
71 | Cc1ccc(NC(=O)NNC(=O)c2cc3ccccc3cc2O)cc1C | inactive
72 | N#Cc1ccccc1NC(=S)NC(=O)c1cccnc1 | inconclusive: 18.5 µM [inhibitor, single point]
73 | CC(C)CC(=O)NC(Oc1ccc(Cl)cc1)C(Cl)(Cl)Cl (stereo not given) | inactive
74 | Nc1nncn1C(=O)CCCOc1ccc(Cl)cc1Cl | inconclusive: 6.57 µM [inhibitor, single point]
75 | C#CCOC(C(=O)OCCN(C)C)(c1ccccc1)c1ccccc1 | inconclusive: 19 µM [inhibitor, single point]
